# Laboratory results from ChEMBL document CHEMBL1121652, “Allylprodine analogues as receptor probes. Evidence that phenolic and nonphenolic ligands interact with different subsites on identical opioid receptors” (J Med Chem, 1981).
# Species: Mus musculus
# Assay: cells
# Conditions: Tail, read-out: pA2 (converted)
smiles,measurement,value
CN1CC[C@]23c4c5ccc(O)c4O[C@H]2[C@@H](O)C=C[C@H]3[C@H]1C5 [MORPHINE],Kb,> 1000 nM
